# Some results come without the dose or concentration used.
# Test system: human U2-OS cells
# Test: CALUX panel of 18 in vitro reporter gene assays (overall)
# Format: cell-based
# Settings: of 18 CALUX assays
row,Structure (SMILES),number of active assays
1,"CCCCN(CCCC)C(=O)CCC(=O)N(CCCC)CCCC [TBSA, N,N,N′,N′‐tetrabutylsuccindiamide]",2
2,"CCCCN(C)C(=O)CCC(=O)N(C)CCCC [MBSA, N,N′‐dimethyl‐N,N′‐dibutylsuccindiamide]",4
3,"CCCCN(CC)C(=O)CCC(=O)N(CC)CCCC [EBSA, N,N′‐diethyl‐N,N′‐dibutylsuccindiamide]",2

# — paper PMC7318222, “A Family of Water‐Immiscible, Dipolar Aprotic, Diamide Solvents from Succinic Acid” (Chemsuschem, 2020)
